Measurements published in patent publication US20140255407A1 (MacroGenics, published 2014).
Results are given in words; binding and its absence hold for the method and conditions named. Some results given as binding are weak or reduced against the parent protein; the word gives no strength.

Target: T1, feline B7-H3 in feline tumor tissue (feline)
T1 sequence: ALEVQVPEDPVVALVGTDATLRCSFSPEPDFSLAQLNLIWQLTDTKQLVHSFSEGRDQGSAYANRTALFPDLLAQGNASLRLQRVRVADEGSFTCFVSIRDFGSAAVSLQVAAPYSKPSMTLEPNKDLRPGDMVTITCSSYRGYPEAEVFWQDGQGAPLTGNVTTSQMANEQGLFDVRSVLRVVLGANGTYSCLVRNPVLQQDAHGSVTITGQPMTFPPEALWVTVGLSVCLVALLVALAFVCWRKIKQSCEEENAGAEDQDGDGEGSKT
Assay: IHC on feline tumor tissue

binding: binds
B1: BRCA69D (anti-B7-H3 monoclonal antibody) (antibody, V domains shown)
VH: QVQLQQSGAELARPGASVKLSCKASGYTFTSYWMQWVKQRPGQGLEWIGTIYPGDGDTRYTQKFKGKATLTADKSSSTAYMQLSSLASEDSAVYYCARRGIPRLWYFDVWGAGTTVTVSS
VL: DIQMTQTTSSLSASLGDRVTISCRASQDISNYLNWYQQKPDGTVKLLIYYTSRLHSGVPSRFSGSGSGTDYSLTIDNLEQEDIATYFCQQGNTLPPTFGGGTKLEIK
